Results reported in patent US20220402883A1, “COMPOUNDS AND METHODS FOR MODULATING RNA FUNCTION” (Arrakis Therapeutics, Inc., priority 2016, published 2022).

Each compound was assayed on 41CAG and 17CAG sequences (assay: NMR group epitope mapping (STD)). Details: both RNA constructs; 10 mM Tris pH 8.0, 5 mM DTT, 5% DMSO-d6; T=288.1 K.
Assay type: binding

Compound | epitope mapping (scaled STD effect): protons in closer proximity to RNA
Cc1nn(-c2ccccc2)nc1CN [HP-AC008001-E02] | aromatic protons closest to the heterocycle are in closer proximity to RNA protons
O=C(c1ccc(Cl)cc1)N1CCN(c2ccc([N+](=O)[O-])c3ncccc23)CC1 [CPNQ, reference compound] | protons of the chlorophenyl moiety are in closer proximity to RNA than the nitroquinoline
OCc1cccc(-c2cccnc2)c1 [HP-AC008002-E01] | protons of the pyridine ring are in closer proximity to RNA than the benzene ring
CC(O)CNCc1ccc(-c2ccccc2)o1 (stereo not shown) [HP-AT005003-C03] | protons of the furan moiety are in closer proximity to RNA protons than the phenyl
